Assay results taken from the supplement of paper PMC6411743.
± gives the standard deviation of the averaged measurements. Only a part is listed here, and it is no random draw. Most entries show no effect beyond the scatter of the controls.

Sequences of proteins named here, by UniProt entry; tags and fusion partners are left off. A change or cut given only in a name is not applied to a line headed by its entry.
UniProt P11387: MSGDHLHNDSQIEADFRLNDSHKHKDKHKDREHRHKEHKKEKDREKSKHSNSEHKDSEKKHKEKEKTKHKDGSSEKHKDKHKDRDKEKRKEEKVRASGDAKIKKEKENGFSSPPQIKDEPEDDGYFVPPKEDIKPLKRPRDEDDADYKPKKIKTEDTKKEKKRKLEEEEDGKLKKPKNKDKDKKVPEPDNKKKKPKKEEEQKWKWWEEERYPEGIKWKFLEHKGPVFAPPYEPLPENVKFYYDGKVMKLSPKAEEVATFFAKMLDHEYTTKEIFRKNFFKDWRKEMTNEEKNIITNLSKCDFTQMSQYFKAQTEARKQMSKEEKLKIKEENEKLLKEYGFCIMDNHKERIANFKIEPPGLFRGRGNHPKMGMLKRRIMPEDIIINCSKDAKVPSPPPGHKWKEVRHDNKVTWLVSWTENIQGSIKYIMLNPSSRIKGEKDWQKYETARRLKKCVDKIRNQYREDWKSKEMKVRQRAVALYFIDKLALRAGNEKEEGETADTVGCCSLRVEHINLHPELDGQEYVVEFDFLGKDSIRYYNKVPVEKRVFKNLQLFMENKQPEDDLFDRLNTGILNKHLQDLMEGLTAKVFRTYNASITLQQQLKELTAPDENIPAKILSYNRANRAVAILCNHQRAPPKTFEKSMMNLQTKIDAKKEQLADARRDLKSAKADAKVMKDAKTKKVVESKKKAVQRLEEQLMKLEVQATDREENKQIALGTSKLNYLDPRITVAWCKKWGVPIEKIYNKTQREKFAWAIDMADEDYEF
UniProt P0CG13, whole entry: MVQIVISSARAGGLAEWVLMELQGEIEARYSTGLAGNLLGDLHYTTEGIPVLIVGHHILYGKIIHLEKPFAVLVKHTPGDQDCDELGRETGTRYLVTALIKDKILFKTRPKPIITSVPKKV
UniProt P07902: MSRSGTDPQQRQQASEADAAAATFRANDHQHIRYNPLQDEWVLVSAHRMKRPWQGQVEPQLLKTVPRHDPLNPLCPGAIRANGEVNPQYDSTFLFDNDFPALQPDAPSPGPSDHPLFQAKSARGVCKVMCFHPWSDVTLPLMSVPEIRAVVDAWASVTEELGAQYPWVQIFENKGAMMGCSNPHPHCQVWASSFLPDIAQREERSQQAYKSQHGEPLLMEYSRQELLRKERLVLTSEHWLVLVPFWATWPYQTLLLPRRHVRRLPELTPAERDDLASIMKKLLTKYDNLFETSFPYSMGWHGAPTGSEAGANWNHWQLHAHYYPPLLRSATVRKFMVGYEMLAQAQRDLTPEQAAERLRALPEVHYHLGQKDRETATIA
UniProt P08134, whole entry: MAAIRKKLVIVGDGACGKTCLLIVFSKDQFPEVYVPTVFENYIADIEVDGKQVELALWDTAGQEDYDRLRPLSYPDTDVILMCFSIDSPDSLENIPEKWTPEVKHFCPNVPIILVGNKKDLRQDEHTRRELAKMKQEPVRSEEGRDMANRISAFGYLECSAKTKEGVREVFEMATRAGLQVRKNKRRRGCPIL
UniProt P10606, whole entry: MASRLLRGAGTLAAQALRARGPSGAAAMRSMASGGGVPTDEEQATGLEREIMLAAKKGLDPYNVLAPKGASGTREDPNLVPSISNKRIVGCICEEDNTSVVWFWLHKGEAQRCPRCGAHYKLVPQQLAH
UniProt P08238, whole entry: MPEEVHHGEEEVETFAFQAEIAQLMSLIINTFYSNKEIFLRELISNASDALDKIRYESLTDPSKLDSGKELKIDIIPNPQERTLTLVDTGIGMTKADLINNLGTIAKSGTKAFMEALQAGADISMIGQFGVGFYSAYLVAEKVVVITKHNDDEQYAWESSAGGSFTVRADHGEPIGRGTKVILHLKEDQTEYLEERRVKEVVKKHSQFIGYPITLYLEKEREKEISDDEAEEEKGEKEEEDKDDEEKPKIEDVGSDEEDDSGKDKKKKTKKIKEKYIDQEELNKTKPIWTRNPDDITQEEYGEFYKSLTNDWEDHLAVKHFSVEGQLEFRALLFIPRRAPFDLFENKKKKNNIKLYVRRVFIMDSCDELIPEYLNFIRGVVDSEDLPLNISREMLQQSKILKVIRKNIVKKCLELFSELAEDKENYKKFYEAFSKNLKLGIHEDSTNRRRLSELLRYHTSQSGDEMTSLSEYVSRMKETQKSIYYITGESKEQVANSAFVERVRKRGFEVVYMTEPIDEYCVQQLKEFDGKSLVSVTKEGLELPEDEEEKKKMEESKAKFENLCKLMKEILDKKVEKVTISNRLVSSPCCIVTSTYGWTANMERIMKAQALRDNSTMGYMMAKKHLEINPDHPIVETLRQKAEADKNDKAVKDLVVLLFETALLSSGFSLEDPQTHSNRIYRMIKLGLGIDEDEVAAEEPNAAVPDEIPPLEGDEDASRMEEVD
UniProt P01034: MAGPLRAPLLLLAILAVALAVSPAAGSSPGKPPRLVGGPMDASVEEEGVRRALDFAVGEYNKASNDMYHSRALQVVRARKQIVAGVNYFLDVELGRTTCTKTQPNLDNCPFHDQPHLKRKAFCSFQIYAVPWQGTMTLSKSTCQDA
UniProt O96028: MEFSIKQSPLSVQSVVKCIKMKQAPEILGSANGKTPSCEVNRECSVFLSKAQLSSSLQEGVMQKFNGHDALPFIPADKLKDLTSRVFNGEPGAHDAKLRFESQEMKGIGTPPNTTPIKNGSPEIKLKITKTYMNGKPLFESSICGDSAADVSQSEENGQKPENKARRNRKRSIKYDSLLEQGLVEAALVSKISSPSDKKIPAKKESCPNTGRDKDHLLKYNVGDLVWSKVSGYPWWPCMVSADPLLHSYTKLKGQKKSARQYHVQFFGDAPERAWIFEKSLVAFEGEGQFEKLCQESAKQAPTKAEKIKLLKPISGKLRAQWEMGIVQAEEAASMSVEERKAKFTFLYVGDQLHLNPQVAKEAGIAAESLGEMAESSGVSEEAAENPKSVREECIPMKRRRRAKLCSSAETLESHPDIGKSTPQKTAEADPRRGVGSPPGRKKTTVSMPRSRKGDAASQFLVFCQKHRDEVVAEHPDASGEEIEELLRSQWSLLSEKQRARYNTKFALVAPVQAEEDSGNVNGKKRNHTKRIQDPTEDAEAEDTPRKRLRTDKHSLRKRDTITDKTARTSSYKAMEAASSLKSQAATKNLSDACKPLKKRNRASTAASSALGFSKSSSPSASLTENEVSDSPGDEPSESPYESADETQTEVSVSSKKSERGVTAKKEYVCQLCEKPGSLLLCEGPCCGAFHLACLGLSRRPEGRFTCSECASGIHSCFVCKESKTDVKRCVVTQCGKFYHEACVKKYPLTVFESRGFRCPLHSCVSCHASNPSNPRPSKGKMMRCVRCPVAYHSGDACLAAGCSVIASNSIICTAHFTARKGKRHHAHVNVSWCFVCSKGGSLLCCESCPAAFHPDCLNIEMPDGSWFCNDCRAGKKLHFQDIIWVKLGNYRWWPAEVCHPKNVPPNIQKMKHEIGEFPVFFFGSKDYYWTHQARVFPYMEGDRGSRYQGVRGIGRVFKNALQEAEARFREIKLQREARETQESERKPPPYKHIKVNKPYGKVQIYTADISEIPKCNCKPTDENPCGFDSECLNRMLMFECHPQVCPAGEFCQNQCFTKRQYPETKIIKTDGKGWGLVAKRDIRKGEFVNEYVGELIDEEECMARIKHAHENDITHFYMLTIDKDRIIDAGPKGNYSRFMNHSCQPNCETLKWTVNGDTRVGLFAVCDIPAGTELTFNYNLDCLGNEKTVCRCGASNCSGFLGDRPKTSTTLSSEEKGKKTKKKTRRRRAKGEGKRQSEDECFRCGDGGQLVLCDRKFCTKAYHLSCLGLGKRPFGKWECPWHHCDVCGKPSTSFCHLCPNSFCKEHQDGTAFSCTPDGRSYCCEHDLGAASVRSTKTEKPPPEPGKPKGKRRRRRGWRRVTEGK
UniProt P07737, whole entry: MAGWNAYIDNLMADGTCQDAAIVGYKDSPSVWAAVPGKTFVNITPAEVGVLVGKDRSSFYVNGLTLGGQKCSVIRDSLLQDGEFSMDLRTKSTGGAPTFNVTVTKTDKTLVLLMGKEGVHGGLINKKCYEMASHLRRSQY
UniProt P05423: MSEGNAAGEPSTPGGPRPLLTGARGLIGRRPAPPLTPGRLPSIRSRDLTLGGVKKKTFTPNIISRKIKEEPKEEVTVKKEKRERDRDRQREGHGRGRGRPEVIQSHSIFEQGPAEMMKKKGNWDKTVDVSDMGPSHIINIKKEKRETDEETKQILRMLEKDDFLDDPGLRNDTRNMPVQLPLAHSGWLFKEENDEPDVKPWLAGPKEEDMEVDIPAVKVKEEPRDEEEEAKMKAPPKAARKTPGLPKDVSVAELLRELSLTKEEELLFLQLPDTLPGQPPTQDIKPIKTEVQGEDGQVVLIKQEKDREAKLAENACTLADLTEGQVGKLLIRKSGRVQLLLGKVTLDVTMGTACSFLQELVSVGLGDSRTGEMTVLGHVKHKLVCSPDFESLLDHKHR
UniProt P14550: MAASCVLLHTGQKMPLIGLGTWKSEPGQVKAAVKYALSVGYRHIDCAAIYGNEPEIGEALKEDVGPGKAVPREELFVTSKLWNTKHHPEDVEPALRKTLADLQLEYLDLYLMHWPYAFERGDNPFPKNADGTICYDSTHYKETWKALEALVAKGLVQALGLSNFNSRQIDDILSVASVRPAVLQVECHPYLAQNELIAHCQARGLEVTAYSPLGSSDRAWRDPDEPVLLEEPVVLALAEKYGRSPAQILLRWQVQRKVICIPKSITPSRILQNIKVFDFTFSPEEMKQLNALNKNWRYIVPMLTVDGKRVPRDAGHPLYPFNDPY
UniProt P09471, whole entry, looked up: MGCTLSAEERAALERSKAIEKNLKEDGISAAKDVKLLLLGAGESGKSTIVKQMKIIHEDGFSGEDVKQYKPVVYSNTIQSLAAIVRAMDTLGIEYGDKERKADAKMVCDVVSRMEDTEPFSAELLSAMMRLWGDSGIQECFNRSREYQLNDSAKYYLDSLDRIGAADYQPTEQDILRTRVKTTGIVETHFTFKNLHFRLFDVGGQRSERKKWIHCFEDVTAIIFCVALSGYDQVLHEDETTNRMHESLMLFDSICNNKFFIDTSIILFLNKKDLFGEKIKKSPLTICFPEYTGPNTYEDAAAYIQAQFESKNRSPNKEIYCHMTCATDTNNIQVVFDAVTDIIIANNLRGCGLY
UniProt P11388: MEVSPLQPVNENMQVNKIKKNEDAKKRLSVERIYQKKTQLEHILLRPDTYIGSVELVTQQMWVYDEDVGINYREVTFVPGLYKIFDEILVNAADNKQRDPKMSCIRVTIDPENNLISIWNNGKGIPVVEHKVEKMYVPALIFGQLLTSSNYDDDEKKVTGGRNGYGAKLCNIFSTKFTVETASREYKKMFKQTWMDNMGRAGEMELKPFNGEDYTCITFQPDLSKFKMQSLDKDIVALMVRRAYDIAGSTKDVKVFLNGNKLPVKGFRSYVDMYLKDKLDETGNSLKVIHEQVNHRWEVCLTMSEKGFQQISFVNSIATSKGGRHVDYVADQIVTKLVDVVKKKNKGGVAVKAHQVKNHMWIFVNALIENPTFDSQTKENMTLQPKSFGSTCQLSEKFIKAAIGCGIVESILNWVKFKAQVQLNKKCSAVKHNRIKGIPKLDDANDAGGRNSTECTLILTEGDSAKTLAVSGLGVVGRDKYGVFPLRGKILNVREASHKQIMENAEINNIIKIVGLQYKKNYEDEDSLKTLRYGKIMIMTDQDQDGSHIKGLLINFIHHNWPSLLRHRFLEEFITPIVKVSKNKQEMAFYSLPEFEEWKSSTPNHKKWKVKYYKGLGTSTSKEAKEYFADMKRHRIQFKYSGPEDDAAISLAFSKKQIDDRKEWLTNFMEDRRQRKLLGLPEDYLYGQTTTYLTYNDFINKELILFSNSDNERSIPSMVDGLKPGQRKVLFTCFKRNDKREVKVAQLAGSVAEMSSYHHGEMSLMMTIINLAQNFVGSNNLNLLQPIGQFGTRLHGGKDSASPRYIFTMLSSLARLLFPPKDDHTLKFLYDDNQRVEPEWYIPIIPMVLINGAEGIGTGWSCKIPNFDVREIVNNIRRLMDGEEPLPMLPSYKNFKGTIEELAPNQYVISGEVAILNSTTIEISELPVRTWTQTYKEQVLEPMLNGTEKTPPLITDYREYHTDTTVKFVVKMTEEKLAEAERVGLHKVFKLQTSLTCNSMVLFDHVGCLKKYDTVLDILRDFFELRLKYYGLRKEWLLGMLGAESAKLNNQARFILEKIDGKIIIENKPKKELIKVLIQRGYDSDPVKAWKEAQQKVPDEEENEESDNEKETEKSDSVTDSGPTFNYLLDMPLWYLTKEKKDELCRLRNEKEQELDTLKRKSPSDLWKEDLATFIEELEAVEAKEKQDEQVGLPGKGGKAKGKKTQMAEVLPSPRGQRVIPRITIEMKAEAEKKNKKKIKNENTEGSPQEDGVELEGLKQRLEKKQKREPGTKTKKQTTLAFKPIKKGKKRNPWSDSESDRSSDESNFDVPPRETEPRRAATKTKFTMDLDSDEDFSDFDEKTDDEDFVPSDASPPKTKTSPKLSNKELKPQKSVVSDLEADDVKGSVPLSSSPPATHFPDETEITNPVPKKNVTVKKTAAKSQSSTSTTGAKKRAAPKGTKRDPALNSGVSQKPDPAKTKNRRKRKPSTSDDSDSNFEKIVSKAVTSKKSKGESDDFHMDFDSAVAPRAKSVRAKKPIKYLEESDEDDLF

compound: Nc1ncnc2c1ncn2[C@@H]1O[C@H](COP(=O)(O)OP(=O)(O)OP(=O)(O)O)[C@@H](O)[C@H]1O [adenosine triphosphate]; test: NP40-soluble protein abundance relative to vehicle (solubility fold change) (ratio); higher = more soluble protein in presence of ATP; settings: concentration: 0.5mM
Summary of the method: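 Crude Jurkat lysate, prepared by Dounce homogenisation, was exposed to eight concentrations from 0.1 to 10 mM for 10 min at room temperature and then 3 min at 37 °C. Solubilisation used 0.8% NP40 with benzonase for 60 min at 4 °C, followed by ultracentrifugation and TMT labelling of the supernatant for LC-MS/MS. After vsn normalisation of intensities, each value is the fold change against the detergent-processed vehicle within each replicate, across three independent experiments.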

Question: With TOP1 (UniProt P11387) as the target, how does the NP40-soluble protein abundance read?
Answer: The NP40-soluble protein abundance was 1.05 ± 0.05.

Question: “P0CG12 and related entries (UniProt P0CG13)” was tested. Which NP40-soluble protein abundance did it give?
Answer: Its NP40-soluble protein abundance is 0.884 ± 0.072.

Question: With UniProt P08621 and related entries as the target, how does the NP40-soluble protein abundance read?
Answer: Its NP40-soluble protein abundance is 1.29 ± 0.099.

Question: How did the NP40-soluble protein abundance turn out when SPN (UniProt P16150) was run?
Answer: Its NP40-soluble protein abundance is 0.767 ± 0.23.

Question: How did the NP40-soluble protein abundance turn out when GALT (UniProt P07902) was run?
Answer: Its NP40-soluble protein abundance is 1.06 ± 0.031.

Question: HMGN1 (UniProt P05114) was tested. Which NP40-soluble protein abundance did it give?
Answer: The NP40-soluble protein abundance was 1.33 ± 0.39.

Question: With UniProt P08134 and related entries as the target, how does the NP40-soluble protein abundance read?
Answer: Its NP40-soluble protein abundance is 1.05 ± 0.061.

Question: With COX5B (UniProt P10606) as the target, how does the NP40-soluble protein abundance read?
Answer: The NP40-soluble protein abundance was 0.959 ± 0.024.

Question: Which NP40-soluble protein abundance does the source give for UniProt O95983 and related entries here?
Answer: Its NP40-soluble protein abundance is 0.942 ± 0.11.

Question: For UniProt O95985 and related entries, which NP40-soluble protein abundance is on record?
Answer: The NP40-soluble protein abundance was 0.959 ± 0.051.

Question: For HSP90AB1 (UniProt P08238), which NP40-soluble protein abundance is on record?
Answer: The NP40-soluble protein abundance was 1.01 ± 0.027.

same assay, conditions: concentration: 1mM

Question: CST3 (UniProt P01034) was tested. Which NP40-soluble protein abundance did it give?
Answer: Its NP40-soluble protein abundance is 0.964 ± 0.083.

Question: UniProt O96028 and related entries was tested. Which NP40-soluble protein abundance did it give?
Answer: Its NP40-soluble protein abundance is 1.31 ± 0.054.

Question: How did the NP40-soluble protein abundance turn out when PFN1 (UniProt P07737) was run?
Answer: The NP40-soluble protein abundance was 0.941 ± 0.059.

Question: UniProt P06576 and related entries was tested. Which NP40-soluble protein abundance did it give?
Answer: Its NP40-soluble protein abundance is 0.822 ± 0.18.

Question: For SNRPA (UniProt P09012), which NP40-soluble protein abundance is on record?
Answer: Its NP40-soluble protein abundance is 1.01 ± 0.067.

Question: EIF2S1 (UniProt P05198) was tested. Which NP40-soluble protein abundance did it give?
Answer: Its NP40-soluble protein abundance is 1.04 ± 0.043.

Question: UniProt P08243 and related entries was tested. Which NP40-soluble protein abundance did it give?
Answer: Its NP40-soluble protein abundance is 1.1 ± 0.13.

Question: For POLR3D (UniProt P05423), which NP40-soluble protein abundance is on record?
Answer: Its NP40-soluble protein abundance is 0.986 ± 0.095.

Question: Which NP40-soluble protein abundance does the source give for GAA (UniProt P10253) here?
Answer: Its NP40-soluble protein abundance is 0.981 ± 0.012.

Question: Which NP40-soluble protein abundance does the source give for UniProt P06493 here?
Answer: The NP40-soluble protein abundance was 1.05 ± 0.054.

Question: For AKR1A1 (UniProt P14550), which NP40-soluble protein abundance is on record?
Answer: Its NP40-soluble protein abundance is 0.989 ± 0.046.

Question: With UROS (UniProt P10746) as the target, how does the NP40-soluble protein abundance read?
Answer: Its NP40-soluble protein abundance is 0.973 ± 0.029.

Question: UniProt P09471-2 was tested. Which NP40-soluble protein abundance did it give?
Answer: Its NP40-soluble protein abundance is 1.04 ± 0.059.

Question: HMGN2 (UniProt P05204) was tested. Which NP40-soluble protein abundance did it give?
Answer: Its NP40-soluble protein abundance is 1.06 ± 0.36.

Question: For XRCC5 (UniProt P13010), which NP40-soluble protein abundance is on record?
Answer: The NP40-soluble protein abundance was 1.04 ± 0.055.

Question: UniProt P11177 and related entries was tested. Which NP40-soluble protein abundance did it give?
Answer: The NP40-soluble protein abundance was 1.14 ± 0.069.

Question: With UniProt P12268 and related entries as the target, how does the NP40-soluble protein abundance read?
Answer: Its NP40-soluble protein abundance is 1.14 ± 0.2.

Question: For “P0DN76 and related entries (UniProt Q01081+P0DN76)”, which NP40-soluble protein abundance is on record?
Answer: The NP40-soluble protein abundance was 2.11 ± 0.23.

Question: For MTHFD2 (UniProt P13995), which NP40-soluble protein abundance is on record?
Answer: The NP40-soluble protein abundance was 1.02 ± 0.018.

Question: For UniProt P11388 and related entries, which NP40-soluble protein abundance is on record?
Answer: Its NP40-soluble protein abundance is 1.31 ± 0.066.

Question: UniProt P13674 and related entries was tested. Which NP40-soluble protein abundance did it give?
Answer: Its NP40-soluble protein abundance is 1.01 ± 0.0016.

Question: With TOP1 (UniProt P11387) as the target, how does the NP40-soluble protein abundance read?
Answer: Its NP40-soluble protein abundance is 1.05 ± 0.019.

Question: UniProt P08621 and related entries was tested. Which NP40-soluble protein abundance did it give?
Answer: The NP40-soluble protein abundance was 1.33 ± 0.049.

Question: How did the NP40-soluble protein abundance turn out when SPN (UniProt P16150) was run?
Answer: The NP40-soluble protein abundance was 0.828 ± 0.17.

Question: How did the NP40-soluble protein abundance turn out when GALT (UniProt P07902) was run?
Answer: Its NP40-soluble protein abundance is 0.994 ± 0.016.

Question: HMGN1 (UniProt P05114) was tested. Which NP40-soluble protein abundance did it give?
Answer: The NP40-soluble protein abundance was 1.23 ± 0.32.

Question: Which NP40-soluble protein abundance does the source give for UniProt P08134 and related entries here?
Answer: The NP40-soluble protein abundance was 0.974 ± 0.053.

Question: How did the NP40-soluble protein abundance turn out when COX5B (UniProt P10606) was run?
Answer: Its NP40-soluble protein abundance is 0.9588 ± 0.0074.

Question: Which NP40-soluble protein abundance does the source give for UniProt O95983 and related entries here?
Answer: Its NP40-soluble protein abundance is 1.03 ± 0.12.

Question: HSP90AB1 (UniProt P08238) was tested. Which NP40-soluble protein abundance did it give?
Answer: Its NP40-soluble protein abundance is 1.01 ± 0.063.
